Data on four sequences can be found in paper PMC4949421.

Data set [1] addresses T1, SMAD4 (UniProt Q13485).
T1 sequence (looked up, limits assumed): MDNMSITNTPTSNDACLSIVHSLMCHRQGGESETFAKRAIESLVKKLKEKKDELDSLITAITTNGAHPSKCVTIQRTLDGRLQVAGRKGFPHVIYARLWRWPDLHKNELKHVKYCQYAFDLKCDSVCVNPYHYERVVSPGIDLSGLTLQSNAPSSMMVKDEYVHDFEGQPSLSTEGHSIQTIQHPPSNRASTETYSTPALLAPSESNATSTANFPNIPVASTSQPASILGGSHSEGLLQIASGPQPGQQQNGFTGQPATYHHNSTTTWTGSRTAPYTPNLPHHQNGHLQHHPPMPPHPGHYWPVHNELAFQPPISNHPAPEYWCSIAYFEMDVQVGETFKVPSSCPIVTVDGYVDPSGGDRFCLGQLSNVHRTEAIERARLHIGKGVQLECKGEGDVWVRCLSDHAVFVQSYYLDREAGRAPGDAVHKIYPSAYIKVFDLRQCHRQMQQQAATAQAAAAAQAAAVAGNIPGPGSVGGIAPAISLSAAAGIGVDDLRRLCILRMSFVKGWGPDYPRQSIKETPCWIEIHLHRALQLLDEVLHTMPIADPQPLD
Description: EMSA. The note with it: 10 mM Tris-HCl pH 7.5, 50 mM NaCl, 1 mM EDTA, 1 mM DTT, 5% glycerol, 2 ug poly(dIdC), 5-10 ug nuclear extract, 1 ng probe, 20 ul, 20 min, room temperature; protein in an extract; label: 32P end label. In general terms: Mobility shift assays separate free from complexed probe on a gel.

Data set [2] addresses T1, SMAD4. The data set is described as follows: EMSA, supershift. The note with it: anti-SMAD4 supershift; 10 mM Tris-HCl pH 7.5, 50 mM NaCl, 1 mM EDTA, 1 mM DTT, 5% glycerol, 2 ug poly(dIdC), 5-10 ug nuclear extract, 1 ng probe, 20 ul, 20 min, room temperature; protein in an extract; label: 32P end label, unlabeled as competitor.
The target of data set [3] is T1, SMAD4. The data set is described as follows: competition with a labelled probe. The note with it: unlabeled, 100- and 300-fold excess, vs DSPP -211/-183 and SBE probes; 10 mM Tris-HCl pH 7.5, 50 mM NaCl, 1 mM EDTA, 1 mM DTT, 5% glycerol, 2 ug poly(dIdC), 5-10 ug nuclear extract, 1 ng probe, 20 ul, 20 min, room temperature; protein in an extract; label: 32P end label, unlabeled as competitor.

For at least one entry, the source does not settle the construct or the ends of the probe. Where cells or extracts were used, other partners may take part. Tags and fusion partners may be left off the protein sequences shown.

For the sequence “GCAGGGTGACAGAGTCTAAGTGGCTCTTT (double strand) [DSPP -316/-288]”, the binding result in the data set with SMAD4 [1] is “binds”.

Turning to “AGTCTAGTCCTTTTGGAACCAAAGGTCT (double strand) [DSPP -211/-183]”, the binding result in the data set with SMAD4 [2] and with SMAD4 [3] was “binds” each time.

Take “TAAGACACAAAACAGTCTTCCAGGAGCT (double strand) [DSPP -258/-231]”: the binding result with SMAD4 [1] is given as “binds”.

With “GGTCTCAGTGAGCCAACGTACCGGCG (double strand) [DSPP -188/-163]”, in the data set with SMAD4 [1], the binding result is on record as “binds”.
